From patent publication US12059478B2, “Gene therapy” (Ospedale San Raffaele S.r.l., priority 2016, dated 2024)

System: human cord-blood (CB)-derived CD34+ cells
Test: RNA-Seq time course of exposed CD34+ cells
Format: cell-based
Details: p-value ≤ 0.05

Poly(I:C)
Genes changing over time: 9496 | Number of differentially expressed genes over time vs Untreated: 2691
